Measured values published in PMC12660224.
These are yes or no findings as the source states them, for the method shown. Binding seen in cells or lysates may run through a third protein. Some entries that bind do so weakly or less than the wild type.

By UniProt entry, the sequences of proteins in these tests, tags left out. Where a name states a change or a piece, a line headed by the entry shows the natural chain unless it says otherwise.
UniProt P08069: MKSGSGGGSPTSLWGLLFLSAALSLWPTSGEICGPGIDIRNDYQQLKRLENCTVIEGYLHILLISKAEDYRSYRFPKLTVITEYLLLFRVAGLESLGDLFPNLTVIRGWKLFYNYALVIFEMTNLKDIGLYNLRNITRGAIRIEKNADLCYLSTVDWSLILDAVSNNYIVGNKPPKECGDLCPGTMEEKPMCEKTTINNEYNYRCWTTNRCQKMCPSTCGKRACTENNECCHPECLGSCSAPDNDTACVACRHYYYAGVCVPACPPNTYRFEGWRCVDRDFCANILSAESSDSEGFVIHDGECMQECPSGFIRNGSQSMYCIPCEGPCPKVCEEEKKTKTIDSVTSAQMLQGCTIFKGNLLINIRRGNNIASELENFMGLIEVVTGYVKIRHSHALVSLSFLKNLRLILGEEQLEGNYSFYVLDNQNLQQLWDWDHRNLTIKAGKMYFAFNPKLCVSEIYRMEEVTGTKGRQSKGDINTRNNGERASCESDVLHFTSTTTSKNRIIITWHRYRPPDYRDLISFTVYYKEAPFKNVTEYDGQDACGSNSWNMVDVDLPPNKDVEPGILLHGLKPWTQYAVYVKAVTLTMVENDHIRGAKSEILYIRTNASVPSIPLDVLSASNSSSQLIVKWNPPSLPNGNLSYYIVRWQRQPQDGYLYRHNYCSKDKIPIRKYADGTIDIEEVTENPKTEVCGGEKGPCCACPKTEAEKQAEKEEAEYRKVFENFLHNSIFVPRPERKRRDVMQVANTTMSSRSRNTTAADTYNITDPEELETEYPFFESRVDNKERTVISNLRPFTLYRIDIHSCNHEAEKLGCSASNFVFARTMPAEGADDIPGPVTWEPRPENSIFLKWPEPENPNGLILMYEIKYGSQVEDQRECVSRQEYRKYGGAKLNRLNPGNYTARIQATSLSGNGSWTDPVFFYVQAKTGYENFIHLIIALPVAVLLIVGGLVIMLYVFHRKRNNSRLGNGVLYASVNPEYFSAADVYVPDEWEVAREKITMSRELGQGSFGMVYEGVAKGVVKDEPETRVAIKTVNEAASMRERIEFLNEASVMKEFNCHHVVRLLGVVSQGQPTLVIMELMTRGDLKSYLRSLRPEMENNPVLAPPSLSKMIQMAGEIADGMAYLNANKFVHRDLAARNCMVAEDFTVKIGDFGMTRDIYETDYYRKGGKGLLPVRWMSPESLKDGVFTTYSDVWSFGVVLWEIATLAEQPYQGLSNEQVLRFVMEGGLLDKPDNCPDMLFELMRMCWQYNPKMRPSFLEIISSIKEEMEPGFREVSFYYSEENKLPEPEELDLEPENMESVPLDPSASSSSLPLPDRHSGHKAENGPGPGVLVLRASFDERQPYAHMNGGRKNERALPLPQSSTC
UniProt P78527: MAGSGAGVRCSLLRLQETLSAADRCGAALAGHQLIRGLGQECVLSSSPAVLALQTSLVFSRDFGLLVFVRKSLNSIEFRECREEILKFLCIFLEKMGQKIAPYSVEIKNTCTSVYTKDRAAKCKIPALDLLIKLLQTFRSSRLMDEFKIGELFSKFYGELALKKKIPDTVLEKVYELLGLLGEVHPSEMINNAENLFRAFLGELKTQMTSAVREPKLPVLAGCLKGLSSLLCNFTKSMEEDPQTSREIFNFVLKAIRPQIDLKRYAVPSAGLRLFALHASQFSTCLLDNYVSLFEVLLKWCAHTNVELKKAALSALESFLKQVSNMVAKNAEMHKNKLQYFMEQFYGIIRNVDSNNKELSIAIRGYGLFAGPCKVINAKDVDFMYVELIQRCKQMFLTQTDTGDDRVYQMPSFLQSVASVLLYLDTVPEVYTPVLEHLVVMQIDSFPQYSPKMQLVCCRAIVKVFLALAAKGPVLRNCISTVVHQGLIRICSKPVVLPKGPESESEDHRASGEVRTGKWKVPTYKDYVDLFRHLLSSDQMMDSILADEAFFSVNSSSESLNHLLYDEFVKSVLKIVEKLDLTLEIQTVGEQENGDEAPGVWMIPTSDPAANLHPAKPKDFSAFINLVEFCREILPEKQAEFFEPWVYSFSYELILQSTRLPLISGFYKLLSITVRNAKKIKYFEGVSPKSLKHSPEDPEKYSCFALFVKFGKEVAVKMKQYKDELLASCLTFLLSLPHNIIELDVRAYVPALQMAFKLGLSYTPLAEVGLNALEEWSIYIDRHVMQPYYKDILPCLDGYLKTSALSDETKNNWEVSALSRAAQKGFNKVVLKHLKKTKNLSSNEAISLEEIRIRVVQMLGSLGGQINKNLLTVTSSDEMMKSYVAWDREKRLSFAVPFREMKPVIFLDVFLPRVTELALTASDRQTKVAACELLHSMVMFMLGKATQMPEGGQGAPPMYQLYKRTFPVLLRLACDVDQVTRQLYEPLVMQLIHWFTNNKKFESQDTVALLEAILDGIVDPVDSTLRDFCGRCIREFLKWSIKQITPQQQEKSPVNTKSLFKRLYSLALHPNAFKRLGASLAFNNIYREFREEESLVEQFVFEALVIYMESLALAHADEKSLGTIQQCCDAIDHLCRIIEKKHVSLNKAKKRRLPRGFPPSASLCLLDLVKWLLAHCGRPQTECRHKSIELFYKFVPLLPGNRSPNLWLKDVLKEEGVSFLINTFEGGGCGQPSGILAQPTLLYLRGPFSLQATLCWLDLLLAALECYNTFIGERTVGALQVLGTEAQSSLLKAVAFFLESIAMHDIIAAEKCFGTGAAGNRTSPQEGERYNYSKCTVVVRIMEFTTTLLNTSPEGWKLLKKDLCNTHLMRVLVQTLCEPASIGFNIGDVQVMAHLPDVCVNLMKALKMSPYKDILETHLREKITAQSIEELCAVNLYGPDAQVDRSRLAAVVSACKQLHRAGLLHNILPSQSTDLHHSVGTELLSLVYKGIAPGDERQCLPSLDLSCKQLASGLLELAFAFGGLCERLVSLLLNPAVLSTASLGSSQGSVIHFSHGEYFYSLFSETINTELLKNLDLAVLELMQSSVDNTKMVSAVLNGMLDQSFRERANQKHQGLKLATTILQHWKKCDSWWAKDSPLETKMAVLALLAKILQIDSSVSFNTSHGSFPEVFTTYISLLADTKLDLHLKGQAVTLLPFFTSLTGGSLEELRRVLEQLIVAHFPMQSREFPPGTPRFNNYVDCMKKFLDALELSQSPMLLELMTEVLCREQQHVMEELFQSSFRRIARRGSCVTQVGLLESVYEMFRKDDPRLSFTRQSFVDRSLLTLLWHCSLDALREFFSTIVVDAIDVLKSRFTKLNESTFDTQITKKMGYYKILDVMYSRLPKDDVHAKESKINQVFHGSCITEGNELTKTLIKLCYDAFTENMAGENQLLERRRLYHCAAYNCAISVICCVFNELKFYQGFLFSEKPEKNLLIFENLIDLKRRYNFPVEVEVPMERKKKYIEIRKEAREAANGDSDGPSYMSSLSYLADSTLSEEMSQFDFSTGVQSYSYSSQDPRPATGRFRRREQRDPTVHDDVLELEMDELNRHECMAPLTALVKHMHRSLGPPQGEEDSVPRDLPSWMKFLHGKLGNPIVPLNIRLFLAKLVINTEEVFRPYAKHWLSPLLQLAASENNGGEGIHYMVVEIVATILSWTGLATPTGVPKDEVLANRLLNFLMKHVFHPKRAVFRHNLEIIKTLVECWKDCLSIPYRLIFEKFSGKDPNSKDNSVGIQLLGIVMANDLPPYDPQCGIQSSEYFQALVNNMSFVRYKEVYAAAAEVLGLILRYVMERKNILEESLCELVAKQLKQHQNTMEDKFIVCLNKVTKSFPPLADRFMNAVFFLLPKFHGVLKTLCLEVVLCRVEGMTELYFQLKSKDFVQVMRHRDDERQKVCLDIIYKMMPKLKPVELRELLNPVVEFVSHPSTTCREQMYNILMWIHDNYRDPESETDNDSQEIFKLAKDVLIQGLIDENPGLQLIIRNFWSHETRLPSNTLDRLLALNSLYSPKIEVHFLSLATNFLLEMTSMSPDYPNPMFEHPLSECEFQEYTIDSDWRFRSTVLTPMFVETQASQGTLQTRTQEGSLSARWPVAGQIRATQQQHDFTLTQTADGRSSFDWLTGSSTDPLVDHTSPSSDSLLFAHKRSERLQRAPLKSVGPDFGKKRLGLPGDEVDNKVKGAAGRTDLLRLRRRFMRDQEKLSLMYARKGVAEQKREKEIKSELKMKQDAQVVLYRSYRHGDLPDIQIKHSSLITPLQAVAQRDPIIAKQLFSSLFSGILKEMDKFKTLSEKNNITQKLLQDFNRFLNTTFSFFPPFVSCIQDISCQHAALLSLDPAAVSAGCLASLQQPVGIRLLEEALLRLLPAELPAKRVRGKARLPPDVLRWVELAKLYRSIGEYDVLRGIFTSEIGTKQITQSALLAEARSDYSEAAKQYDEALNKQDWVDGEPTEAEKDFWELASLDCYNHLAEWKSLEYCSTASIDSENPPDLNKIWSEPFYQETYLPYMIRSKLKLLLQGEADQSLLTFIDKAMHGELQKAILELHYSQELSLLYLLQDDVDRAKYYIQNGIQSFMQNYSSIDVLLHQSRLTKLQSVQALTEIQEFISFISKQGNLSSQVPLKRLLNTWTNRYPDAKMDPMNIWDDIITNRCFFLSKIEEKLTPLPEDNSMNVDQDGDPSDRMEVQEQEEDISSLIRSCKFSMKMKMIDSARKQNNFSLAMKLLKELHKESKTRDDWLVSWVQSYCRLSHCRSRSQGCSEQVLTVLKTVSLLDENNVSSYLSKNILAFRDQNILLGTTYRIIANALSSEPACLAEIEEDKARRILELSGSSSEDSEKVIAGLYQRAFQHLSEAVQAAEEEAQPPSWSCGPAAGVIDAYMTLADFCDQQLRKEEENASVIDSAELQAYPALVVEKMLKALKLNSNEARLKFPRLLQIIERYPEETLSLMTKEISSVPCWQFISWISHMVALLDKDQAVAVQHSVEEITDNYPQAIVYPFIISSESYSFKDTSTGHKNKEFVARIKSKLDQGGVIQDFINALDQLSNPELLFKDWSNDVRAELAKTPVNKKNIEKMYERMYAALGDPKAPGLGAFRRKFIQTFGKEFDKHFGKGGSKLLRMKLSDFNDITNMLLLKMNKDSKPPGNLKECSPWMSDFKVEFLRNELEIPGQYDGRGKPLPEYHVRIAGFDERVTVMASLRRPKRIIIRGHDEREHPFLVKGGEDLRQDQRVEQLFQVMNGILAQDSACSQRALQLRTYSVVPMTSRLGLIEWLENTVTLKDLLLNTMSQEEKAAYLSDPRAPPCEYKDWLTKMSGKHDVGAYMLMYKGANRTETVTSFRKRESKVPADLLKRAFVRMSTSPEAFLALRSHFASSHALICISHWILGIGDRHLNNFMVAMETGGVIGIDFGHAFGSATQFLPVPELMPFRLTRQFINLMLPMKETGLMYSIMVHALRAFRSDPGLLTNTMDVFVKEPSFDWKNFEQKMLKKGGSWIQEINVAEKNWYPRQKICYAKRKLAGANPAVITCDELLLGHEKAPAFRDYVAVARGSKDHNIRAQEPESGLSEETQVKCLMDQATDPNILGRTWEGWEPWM

Key:
[1] = biological target: IGF1R overexpressed in LX-2 cells (OE) (UniProt P08069); assay: co-IP; IGF1R antibody (CST) pre-incubated on Protein A/G magnetic beads, incubated overnight with lysate of LX-2 or HSC-T6 cells (NC and OE groups, irradiation with 6 Gy or 8 Gy); DNA-PKcs detected by Western blot
[2] = biological target: insulin-like growth factor 1 receptor (IGF1R), endogenous in LX-2 cells (human (endogenous in LX-2)) (UniProt P08069); assay: as above

Substance: DNA-dependent protein kinase catalytic subunit (DNA-PKcs), endogenous in LX-2 cells (from UniProt P78527 1-4128) (enzyme)
- binding [1]: binds
- binding [2]: binds
